Legend:
Solubility test = format: physicochemical; settings: for solubility kinetic: kinetic from dmso stock
Description: A 10 mmol/L solution of the compound was prepared with DMSO, and 2 μL of the compound of the present invention solution was added, respectively, to 198 μL of JP 1st fluid (water was added to 2.0 g of sodium chloride and 7.0 ml, of hydrochloric acid to reach 1000 mL) and JP 2nd fluid (See Table 4). The mixture was left standing for 16 hours at 25° C. or shaken for 1 hour at ruom temperature, and the mixture was vacuum-filtered. The […] was ten or one hundred-fold diluted with metbanol/water=1/1 (v/v) or MeCN/MeOH/H2O(=1/1/2), and the compound concent ration in the filtrate was measured with LC/MS or solid phase extraction (SPE)/MS by the absolute calibration method.

Chains of the proteins cited; added tags and fusions are not shown.
UniProt P21447, whole entry: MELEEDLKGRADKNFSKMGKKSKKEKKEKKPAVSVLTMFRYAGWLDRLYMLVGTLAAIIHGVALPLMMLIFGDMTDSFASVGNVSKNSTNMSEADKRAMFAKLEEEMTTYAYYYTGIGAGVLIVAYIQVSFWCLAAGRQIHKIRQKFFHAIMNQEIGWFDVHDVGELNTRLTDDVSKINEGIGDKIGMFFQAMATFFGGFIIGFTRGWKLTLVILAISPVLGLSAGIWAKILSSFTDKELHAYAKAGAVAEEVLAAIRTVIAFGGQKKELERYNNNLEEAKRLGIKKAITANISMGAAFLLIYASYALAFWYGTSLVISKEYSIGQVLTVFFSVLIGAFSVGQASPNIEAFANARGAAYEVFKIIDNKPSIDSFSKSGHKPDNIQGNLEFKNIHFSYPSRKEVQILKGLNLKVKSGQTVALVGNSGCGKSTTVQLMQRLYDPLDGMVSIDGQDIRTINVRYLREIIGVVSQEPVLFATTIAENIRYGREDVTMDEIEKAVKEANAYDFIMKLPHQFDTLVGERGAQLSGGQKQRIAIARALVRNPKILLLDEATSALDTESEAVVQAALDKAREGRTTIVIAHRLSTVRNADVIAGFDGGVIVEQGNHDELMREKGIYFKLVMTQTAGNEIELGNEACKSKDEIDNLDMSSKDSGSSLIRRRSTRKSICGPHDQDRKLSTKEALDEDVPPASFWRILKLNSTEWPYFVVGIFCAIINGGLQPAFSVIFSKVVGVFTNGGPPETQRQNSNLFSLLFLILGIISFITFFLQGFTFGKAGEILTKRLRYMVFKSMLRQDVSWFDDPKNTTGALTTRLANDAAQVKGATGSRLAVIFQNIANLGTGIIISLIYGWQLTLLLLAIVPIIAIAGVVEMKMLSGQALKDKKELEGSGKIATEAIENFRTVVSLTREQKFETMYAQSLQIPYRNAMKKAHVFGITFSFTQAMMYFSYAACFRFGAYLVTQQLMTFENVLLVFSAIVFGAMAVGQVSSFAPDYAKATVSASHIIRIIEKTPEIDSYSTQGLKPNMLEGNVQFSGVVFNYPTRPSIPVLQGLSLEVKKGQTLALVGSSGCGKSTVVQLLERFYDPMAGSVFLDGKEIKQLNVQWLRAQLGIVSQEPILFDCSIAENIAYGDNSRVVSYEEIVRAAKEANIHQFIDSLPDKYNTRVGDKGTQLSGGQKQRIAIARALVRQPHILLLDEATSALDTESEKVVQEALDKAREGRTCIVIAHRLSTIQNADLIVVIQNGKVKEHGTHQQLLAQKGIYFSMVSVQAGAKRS

[1] = Brain distribution studies; settings: in vivo; rat, intravenous 0.5 mg/mL/kg, 30 minutes later; area ratio brain/plasma
Description: Compound of the present invention was intravenously administered to a rat at 0.5 mg/mL/kg dosage. 30 minutes later, all blood was drawn from the abdominal aorta under isoflurane anesthesia for death from exsanguination. […] The obtained blood was used as plasma after centrifuging. The control plasma was added to the brain sample at 1:1. The control brain homogenate was added to the plasma sample at 1:1. Each sample was measured using LC/MS/MS. The obtained area ratio (a brain/plasma) was used for the brain Kp value.

P-gp = target: T1, P-gp (Mus musculus, UniProt P21447); assay: P-gp substrate test using mdr1a (−/−) B6 mice; format: in vivo; settings: mdr1a (−/−) B6 (KO) and C57BL/6J (wild), brain / plasma, Kp in KO mouse (mdr1a (−/−) B6) / Kp in Wild mouse, 2 mg/kg, po, read-out: Kp ratio (2 mg/kg, po, 2 hr)
T1 construct: from tissue; host or cells: living mice (brain/plasma distribution), wild type versus mdr1a (−/−)
Description: Animal: mdrla (−/−) B6 mice (KO mouse) or […] mice (Wild mouse)
1. Animals may be fed prior to dosing of the compounds of the present invention. 2. The compounds of the present invention were dosed to three animals for each time point and blood and brain samples were removed at selected time points (e.g. 15 min, 30 min, 1 hr, 2 hr, 4 hr, 6 hr, 8 hr, or 24 hr) after dosing. Blood (0.3-0.7 mL) was collected via trunk blood collection with syringe containing anticoagulants (EDTA and heparin). Blood and tissue (e.g. brain) samples were immediately placed on melting ice. 3. Blood samples were centrifuged (1780×g for 10 minutes) for cell removal to obtain plasma. Then, plasma samples were transferred to a clean tube and stored in a −70° C. freezer until analysis. 4. Tissue (e.g. brain) samples were homogenized at a 1:3 ratio of tissue weight to ml of stilled water and transferred to a clean tube and stored in a −70° C. freezer until analysis. 5. Plasma and tissue (e.g. brain) samples were prepared using protein prceipitation and analyzed by LC/MS/MS. The analytical method was calibrated by including a standard curve constructed with blank plasma or brain samples and known quantities of analyte. Quality control samples were included to monitor the accuracy and precision of the methodology. 6. […]

[2] = pH 1.2, simulated gastric fluid

| solubility kinetic (Solubility test; [2]) [µM] | solubility kinetic (Solubility test; pH 6.8, aqueous buffer) [µM] | Kp at 0.5 h [1] | Kp at 2 h (P-gp) | JP2_μM (Solubility test; pH 6.8) [µM] | Compound |
| --- | --- | --- | --- | --- | --- |
| > 50 | > 50 | 3.3 | 3.13 |  | C[C@H]1SC(N)=N[C@](C)(c2cc(NC(=O)c3cnc(OCF)cn3)ccc2F)[C@H]1F [Compound I-9] |
| > 50 |  |  |  | >50.0 | C[C@@H]1SC(N)=N[C@](C)(c2cc(NC(=O)c3cnc(OCF)cn3)ccc2F)[C@@H]1F [Compound I-112] |
